System: revascularization, unstable angina requiring hospitalization, MI, all causes of death, or stroke
Experiment: PROVE IT-TIMI 22: SNP by treatment interaction (high-dose atorvastatin vs standard-dose pravastatin), logistic regression (synergy index), primary composite endpoint
Assay type: in vivo, human
Details: for OR (synergy index), PROVEIT, Atorv vs Prav: Caseonly

Compound: CC(C)c1c(C(=O)Nc2ccccc2)c(-c2ccccc2)c(-c2ccc(F)cc2)n1CC[C@@H](O)C[C@@H](O)CC(=O)O [Atorvastatin, atorvastatin]
- OR (SNP by treatment interaction, logistic regression) (PROVE-IT, atorvastatin vs pravastatin, rs992695, Imputed, allele C (A1), model ADD, NMISS 442): 1.16
- OR (PROVEIT, marker rs198460, cohort, model rec, End-point CHD, atorvastatin vs pravastatin): 1.55
- OR (PROVEIT, marker rs238250, cohort, model add, End-point CVD, atorvastatin vs pravastatin): 1.24
- OR (PROVEIT, marker rs251817, caseonly, model add, End-point CVD, atorvastatin vs pravastatin): 2.02
- OR (PROVEIT, marker rs1015199, cohort, model dom, End-point CVD, atorvastatin vs pravastatin): 1.93
- OR (PROVEIT, marker rs2616548, caseonly, model dom, End-point CHD, atorvastatin vs pravastatin): 2.02
- OR (PROVEIT, marker rs2616552, cohort, model add, End-point CHD, atorvastatin vs pravastatin): 1.55
- OR (PROVEIT, marker rs4686740, caseonly, model rec, End-point CVD, atorvastatin vs pravastatin): 1.86
- OR (PROVEIT, marker rs6474228, caseonly, model dom, End-point CHD, atorvastatin vs pravastatin): 1.32
- OR (PROVEIT, marker rs6746182, cohort, model dom, End-point CHD, atorvastatin vs pravastatin): 1.25
- OR (PROVEIT, marker rs7305949, cohort, model rec, End-point CHD, atorvastatin vs pravastatin): 2.34
- OR (PROVEIT, marker rs7785499, cohort, model rec, End-point CVD, atorvastatin vs pravastatin): 1.68
- OR (PROVEIT, marker rs11148285, caseonly, model rec, End-point CVD, atorvastatin vs pravastatin): 1.87
- OR (PROVEIT, marker rs12265891, caseonly, model rec, End-point CHD, atorvastatin vs pravastatin): 2.13
- OR (PROVEIT, marker rs16885715, caseonly, model dom, End-point CHD, atorvastatin vs pravastatin): 1.34
- OR (PROVEIT, marker rs17048681, caseonly, model add, End-point CVD, atorvastatin vs pravastatin): 1.25
- OR (PROVEIT, rs9960, caseonly, dom, CVD): 1.37
- OR (PROVEIT, rs208025, caseonly, dom, CVD): 1.55
- OR (PROVEIT, rs478859, caseonly, add, CVD): 1.32
- OR (PROVEIT, rs1439269, caseonly, add, CHD): 1.27
- OR (PROVEIT, rs1580713, caseonly, rec, CHD): 1.55
- OR (PROVEIT, rs3732136, caseonly, dom, CHD): 1.42
- OR (PROVEIT, rs6040760, caseonly, dom, CVD): 1.34
- OR (PROVEIT, rs6742894, caseonly, rec, CVD): 1.94
- OR (PROVEIT, rs7068975, caseonly, dom, CHD): 1.32
- OR (PROVEIT, rs9557509, caseonly, dom, CHD): 1.29
- OR (PROVEIT, rs10802865, caseonly, add, CHD): 1.29
- OR (PROVEIT, rs10817479, caseonly, dom, CVD): 1.77
- OR (PROVEIT, rs11077308, caseonly, dom, CHD): 1.55
- OR (PROVEIT, rs12286877, caseonly, dom, CVD): 2.05
- OR (PROVEIT, rs12659030, caseonly, dom, CHD): 1.27
- OR (PROVEIT, rs13411119, caseonly, dom, CVD): 1.32
- OR (synergy index), PROVEIT, Atorv vs Prav (SNP rs198462 (A1 G, A2 A), rec model, CHD endpoint): 1.92
- OR (synergy index), PROVEIT, Atorv vs Prav (SNP rs471579 (A1 A, A2 C), add model, CHD endpoint): 1.27
- OR (SNP rs2882097 allele A, model DOM, Imputed, ATORVA vs PRAVA): 1.364
- OR (SNP rs3793044 allele C, model DOM, Imputed, ATORVA vs PRAVA): 1.162
- OR (SNP rs3806003 allele A, model DOM, Imputed, ATORVA vs PRAVA): 1.162
- OR (SNP rs4291049 allele T, model REC, Imputed, ATORVA vs PRAVA): 1.16
- OR (SNP rs4450660 allele C, model DOM, Imputed, ATORVA vs PRAVA): 1.275
- OR (synergy index), PROVEIT, Atorv vs Prav (SNP rs9346951 (A1 A, A2 G), add model, CVD endpoint): 1.88
- OR (synergy index), PROVEIT, Atorv vs Prav (SNP rs10787944 (A1 G, A2 A), dom model, CVD endpoint): 1.37
- OR (rs238252, allele G, ADD, Imputed, PROVE-IT, vs pravastatin): 1.155
- OR (rs489441 allele G, ADD, Imputed, atorvastatin vs pravastatin): 1.224
- OR (rs608278 allele A model ADD Imputed, ATORVA vs PRAVA): 1.166
- OR (SNP x treatment interaction) (rs742827, allele A, REC, Imputed, atorvastatin vs pravastatin): 2.051
- OR (SNP x treatment interaction) (rs879961, allele T, DOM, Imputed, atorvastatin vs pravastatin): 1.245
- OR (rs1016030, allele G, ADD, Genotyped): 1.159
- OR (rs1149349, allele T, DOM, Imputed, atorvastatin vs pravastatin): 1.154
- OR (rs1336382 allele T DOM Imputed): 1.364
- OR (rs1336382 allele T, DOM, Imputed, atorvastatin vs pravastatin): 1.364
- OR (rs1336383 allele T DOM Imputed): 1.364
- OR (rs1336383 allele T, DOM, Imputed, atorvastatin vs pravastatin): 1.364
- OR (rs1395748 allele G, DOM, Imputed, atorvastatin vs pravastatin): 1.231
- OR (rs1516855 allele G REC Imputed): 1.236
- OR (rs1524306 allele C, ADD, Imputed, atorvastatin vs pravastatin): 1.05
- OR (rs1694334 allele G ADD Imputed): 1.156
- OR (rs2023651, allele T, ADD, Imputed, PROVE-IT, vs pravastatin): 1.235
- OR (rs2024902, allele A, DOM, Imputed, PROVE-IT, vs pravastatin): 1.157
- OR (rs2024902 allele A (A1), DOM, Imputed, atorvastatin vs pravastatin): 1.157
- OR (rs2247066, allele A, DOM, Imputed, PROVE-IT, vs pravastatin): 1.231
- OR (rs2322100, allele T, REC, Genotyped, PROVE-IT, vs pravastatin): 2.61
- OR (rs2373793, allele G, ADD, Imputed, PROVE-IT, vs pravastatin): 1.56
- OR (rs2882097 allele A, DOM, Imputed, atorvastatin vs pravastatin): 1.364
- OR (rs3793044 allele C, DOM, Imputed, atorvastatin vs pravastatin): 1.162
- OR (rs3806003 allele A, DOM, Imputed, atorvastatin vs pravastatin): 1.162
- OR (rs4450660 allele C, DOM, Imputed, atorvastatin vs pravastatin): 1.275
- OR (rs4586678 allele A, DOM, Imputed, atorvastatin vs pravastatin): 1.235
- OR (rs6040636 allele T model ADD Imputed, ATORVA vs PRAVA): 1.371
- OR (rs6474230 allele T model DOM Imputed, ATORVA vs PRAVA): 1.32
- OR (rs6544721 allele G model DOM Imputed, ATORVA vs PRAVA): 1.236
- OR (rs6994498 allele G model DOM Imputed, ATORVA vs PRAVA): 1.32
- OR (SNP x treatment interaction) (rs7220603, allele A, ADD, Genotyped, atorvastatin vs pravastatin): 1.419
- OR (SNP x treatment interaction) (rs7282518, allele T, ADD, Imputed, atorvastatin vs pravastatin): 1.054
- OR (SNP x treatment interaction) (rs7305832, allele C, REC, Imputed, atorvastatin vs pravastatin): 2.008
- OR (rs7468898 allele T model ADD Imputed, ATORVA vs PRAVA): 1.05
- OR (SNP x treatment interaction) (rs7600050, allele C, ADD, Imputed, atorvastatin vs pravastatin): 1.316
- OR (SNP x treatment interaction) (rs7621663, allele G, ADD, Imputed, atorvastatin vs pravastatin): 1.048
- OR (rs7639053 allele A model ADD Imputed, ATORVA vs PRAVA): 1.02
- OR (rs7713251 allele C model REC Imputed, ATORVA vs PRAVA): 1.11
- OR (SNP x treatment interaction) (rs7719448, allele G, REC, Imputed, atorvastatin vs pravastatin): 1.235
- OR (SNP x treatment interaction) (rs7742476, allele T, DOM, Imputed, atorvastatin vs pravastatin): 1.23
- OR (SNP x treatment interaction) (rs7767265, allele G, DOM, Imputed, atorvastatin vs pravastatin): 1.155
- OR (rs7767265 allele G model DOM Imputed, ATORVA vs PRAVA): 1.155
- OR (SNP x treatment interaction) (rs7771264, allele T, DOM, Imputed, atorvastatin vs pravastatin): 1.051
- OR (SNP x treatment interaction) (rs7808536, allele G, DOM, Imputed, atorvastatin vs pravastatin): 1.374
- OR (rs7808536 allele G model DOM Imputed, ATORVA vs PRAVA): 1.374
- OR (SNP x treatment interaction) (rs7894867, allele T, DOM, Imputed, atorvastatin vs pravastatin): 1.426
- OR (SNP x treatment interaction) (rs7921834, allele C, DOM, Imputed, atorvastatin vs pravastatin): 1.347
- OR (SNP x treatment interaction) (rs8103016, allele A, DOM, Genotyped, atorvastatin vs pravastatin): 1.343
- OR (SNP x treatment interaction) (rs9310700, allele C, ADD, Imputed, atorvastatin vs pravastatin): 1.048
- OR (SNP x treatment interaction) (rs9815037, allele T, ADD, Imputed, atorvastatin vs pravastatin): 1.048
- OR (SNP x treatment interaction) (rs9825349, allele A, ADD, Imputed, atorvastatin vs pravastatin): 1.048
- OR (SNP x treatment interaction) (rs9833118, allele G, ADD, Imputed, atorvastatin vs pravastatin): 1.048
- OR (SNP x treatment interaction) (rs9834217, allele T, ADD, Imputed, atorvastatin vs pravastatin): 1.017
- OR (SNP x treatment interaction) (rs9834217, allele T, DOM, Imputed, atorvastatin vs pravastatin): 1.049
- OR (SNP x treatment interaction) (rs9840460, allele T, ADD, Imputed, atorvastatin vs pravastatin): 1.017
- OR (SNP x treatment interaction) (rs9840460, allele T, DOM, Imputed, atorvastatin vs pravastatin): 1.049
- OR (rs10183431, allele T, DOM, Imputed): 1.231
- OR (rs10270624, allele G, DOM, Imputed, atorvastatin vs pravastatin): 1.374
- OR (rs10509477, allele T, DOM, Imputed): 1.364
- OR (rs10509477, allele T, DOM, Imputed, atorvastatin vs pravastatin): 1.364
- OR (rs10765769, allele C, ADD, Imputed): 1.226
- OR (rs10831422, allele C, ADD, Imputed): 1.164
- OR (rs10865197, allele C, DOM, Imputed): 1.231
- OR (rs10870473, allele A, ADD, Imputed, atorvastatin vs pravastatin): 1.273
- OR (rs10886452, allele A, DOM, Imputed): 1.376
- OR (rs10886452, allele A, DOM, Imputed, atorvastatin vs pravastatin): 1.376
- OR (rs10886526, allele C, DOM, Imputed): 1.364
- OR (rs10886526, allele C, DOM, Imputed, atorvastatin vs pravastatin): 1.364
- OR (rs10972978, allele G, DOM, Imputed): 1.24
- OR (rs10974028, allele G, DOM, Genotyped): 1.224
- OR (rs11021302, allele A, ADD, Imputed): 1.164
- OR (rs11198877, allele T, DOM, Imputed): 1.369
- OR (rs11198877, allele T, DOM, Imputed, atorvastatin vs pravastatin): 1.369
- OR (rs11198942, allele T, DOM, Imputed): 1.364
- OR (rs11198942, allele T, DOM, Imputed, atorvastatin vs pravastatin): 1.364
- OR (rs12509758 allele C, DOM, Imputed, atorvastatin vs pravastatin): 1.34
- OR (rs12543110 allele G DOM Imputed): 1.32
- OR (rs13194907 allele A DOM Imputed): 1.162
- OR (rs13194907 allele A, DOM, Imputed, atorvastatin vs pravastatin): 1.162
- OR (rs13195745 allele A DOM Imputed): 1.162
- OR (rs13195745 allele A, DOM, Imputed, atorvastatin vs pravastatin): 1.162
